Measurements reported in PubChem BioAssay AID1224830 (NIAID, 2016)
Test: 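Host factors that control LPS-induced TNF expression in human macrophages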 (primary screen). System: human THP-1 monocytic leukaemia cells, TNF dual-luciferase reporter clone, PMA-differentiated to macrophage-like cells. Reagents: siRNA pool against human genes, 50 nM. Time to read-out: LPS for 4 h, given about 3 days after siRNA transfection. Treatment: bacterial LPS (TLR4 ligand), 10 ng/ml. Measurement: 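TNF firefly reporter luminescence divided by renilla, normalised to the plate median, then turned into a robust z-score for each replicate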. Reading the numbers: TNF reporter robust z-score: higher = stronger TNF reporter response to LPS. Hit rule: 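Each well counts as active if its z-score is over 2.8 or under -1.5; controls are left without a call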.
Shown is an unselected part of about 18,000 reagents tested. About 2,900 of them (16%) count as active. 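Calls are made per well; low scores hint the gene aids the LPS response, high scores that it dampens it.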 Repeated entries: four replicate wells of each siRNA pool.

| gene symbol | TNF reporter robust z-score | Outcome |
| --- | --- | --- |
| MPP1 (MAGUK p55 scaffold protein 1) | -1.06 | inactive |
| MPP1 (MAGUK p55 scaffold protein 1) | -0.42 | inactive |
| MPP1 (MAGUK p55 scaffold protein 1) | -0.52 | inactive |
| MPP1 (MAGUK p55 scaffold protein 1) | 0.71 | inactive |
| TBX15 (T-box transcription factor 15) | 0.01 | inactive |
| TBX15 (T-box transcription factor 15) | 1.29 | inactive |
| TBX15 (T-box transcription factor 15) | 0.65 | inactive |
| PHAF1 (phagophore assembly factor 1) | -0.06 | inactive |
| PHAF1 (phagophore assembly factor 1) | 0.53 | inactive |
| PHAF1 (phagophore assembly factor 1) | 0.22 | inactive |
| PHAF1 (phagophore assembly factor 1) | 2.33 | inactive |
| POLR2E (RNA polymerase II, I and III subunit E) | 2.79 | inactive |
| POLR2E (RNA polymerase II, I and III subunit E) | 3.17 | active |
| POLR2E (RNA polymerase II, I and III subunit E) | 0.57 | inactive |
| POLR2E (RNA polymerase II, I and III subunit E) | 3.72 | active |
| OR4S1 (olfactory receptor family 4 subfamily S member 1) | -0.67 | inactive |
| OR4S1 (olfactory receptor family 4 subfamily S member 1) | 2.28 | inactive |
| OR4S1 (olfactory receptor family 4 subfamily S member 1) | -0.43 | inactive |
| OR4S1 (olfactory receptor family 4 subfamily S member 1) | 0.25 | inactive |
| MLNR (motilin receptor) | -1.04 | inactive |
| MLNR (motilin receptor) | -0.43 | inactive |
| MLNR (motilin receptor) | -0.03 | inactive |
| MLNR (motilin receptor) | -0.88 | inactive |
| SPTAN1 (spectrin alpha, non-erythrocytic 1) | 0.69 | inactive |
| SPTAN1 (spectrin alpha, non-erythrocytic 1) | 0.93 | inactive |
| SPTAN1 (spectrin alpha, non-erythrocytic 1) | 0.54 | inactive |
| SPTAN1 (spectrin alpha, non-erythrocytic 1) | 0.08 | inactive |
| KCTD2 (potassium channel tetramerization domain containing 2) | 0.69 | inactive |
| KCTD2 (potassium channel tetramerization domain containing 2) | 1.14 | inactive |
| KCTD2 (potassium channel tetramerization domain containing 2) | -0.06 | inactive |
| KCTD2 (potassium channel tetramerization domain containing 2) | 1.1 | inactive |
| ANKRD7 (ankyrin repeat domain 7) | -0.18 | inactive |
| ANKRD7 (ankyrin repeat domain 7) | 0.3 | inactive |
| ANKRD7 (ankyrin repeat domain 7) | -0.28 | inactive |
| ANKRD7 (ankyrin repeat domain 7) | 0.42 | inactive |
| SYT9 (synaptotagmin 9) | -0.21 | inactive |
| SYT9 (synaptotagmin 9) | 0.05 | inactive |
| SYT9 (synaptotagmin 9) | -1.33 | inactive |
| SYT9 (synaptotagmin 9) | 0.09 | inactive |
| FBXL5 (F-box and leucine rich repeat protein 5) | 0.07 | inactive |
| FBXL5 (F-box and leucine rich repeat protein 5) | -0.73 | inactive |
| FBXL5 (F-box and leucine rich repeat protein 5) | 2.62 | inactive |
| FBXL5 (F-box and leucine rich repeat protein 5) | -0.18 | inactive |
| GBP7 (guanylate binding protein 7) | 0.15 | inactive |
| GBP7 (guanylate binding protein 7) | 0.85 | inactive |
| GBP7 (guanylate binding protein 7) | 0.69 | inactive |
| GBP7 (guanylate binding protein 7) | 0.79 | inactive |

5 of these entries, reformatted:
gene symbol,TNF reporter robust z-score,Outcome
"SPTAN1 (spectrin alpha, non-erythrocytic 1)",0.08,inactive
KCTD2 (potassium channel tetramerization domain containing 2),0.69,inactive
KCTD2 (potassium channel tetramerization domain containing 2),1.14,inactive
KCTD2 (potassium channel tetramerization domain containing 2),-0.06,inactive
KCTD2 (potassium channel tetramerization domain containing 2),1.1,inactive

The results go on:
| gene symbol | TNF reporter robust z-score | Outcome |
| --- | --- | --- |
| ARHGEF12 (Rho guanine nucleotide exchange factor 12) | 1.66 | inactive |
| ARHGEF12 (Rho guanine nucleotide exchange factor 12) | 2.72 | inactive |
| ARHGEF12 (Rho guanine nucleotide exchange factor 12) | 1.36 | inactive |
| ARHGEF12 (Rho guanine nucleotide exchange factor 12) | 2.34 | inactive |
| ZMAT1 (zinc finger matrin-type 1) | -0.15 | inactive |
| ZMAT1 (zinc finger matrin-type 1) | -0.57 | inactive |
| ZMAT1 (zinc finger matrin-type 1) | -0.45 | inactive |
| ZMAT1 (zinc finger matrin-type 1) | -0.17 | inactive |
| BRI3 (brain protein I3) | -1.42 | inactive |
| BRI3 (brain protein I3) | -1.27 | inactive |
| BRI3 (brain protein I3) | -1 | inactive |
| RNASEH1 (ribonuclease H1) | -0.56 | inactive |
| RNASEH1 (ribonuclease H1) | -0.9 | inactive |
| RNASEH1 (ribonuclease H1) | -0.7 | inactive |
| RNASEH1 (ribonuclease H1) | -0.39 | inactive |
| ULK2 (unc-51 like autophagy activating kinase 2) | 0.25 | inactive |
| ULK2 (unc-51 like autophagy activating kinase 2) | -0.72 | inactive |
| ULK2 (unc-51 like autophagy activating kinase 2) | 0 | inactive |
| ULK2 (unc-51 like autophagy activating kinase 2) | -0.06 | inactive |
| RAI14 (retinoic acid induced 14) | -0.99 | inactive |
| RAI14 (retinoic acid induced 14) | -0.25 | inactive |
| RAI14 (retinoic acid induced 14) | -0.64 | inactive |
| RAI14 (retinoic acid induced 14) | -0.62 | inactive |
| HTR1A (5-hydroxytryptamine receptor 1A) | -0.97 | inactive |
| HTR1A (5-hydroxytryptamine receptor 1A) | -1.17 | inactive |
| HTR1A (5-hydroxytryptamine receptor 1A) | -1.49 | inactive |
| HTR1A (5-hydroxytryptamine receptor 1A) | -1.03 | inactive |
| LRAT (lecithin retinol acyltransferase) | -0.56 | inactive |
| LRAT (lecithin retinol acyltransferase) | 0.4 | inactive |
| LRAT (lecithin retinol acyltransferase) | -0.32 | inactive |
| LRAT (lecithin retinol acyltransferase) | 0.09 | inactive |
| MSTO1 (misato mitochondrial distribution and morphology regulator 1) | 0.1 | inactive |
| MSTO1 (misato mitochondrial distribution and morphology regulator 1) | -0.18 | inactive |
| MSTO1 (misato mitochondrial distribution and morphology regulator 1) | -0.14 | inactive |
| MSTO1 (misato mitochondrial distribution and morphology regulator 1) | 0.98 | inactive |
| OPN1SW (opsin 1, short wave sensitive) | 0.16 | inactive |
| OPN1SW (opsin 1, short wave sensitive) | 0.03 | inactive |
| OPN1SW (opsin 1, short wave sensitive) | -0.24 | inactive |
| OPN1SW (opsin 1, short wave sensitive) | -0.97 | inactive |
| POU6F2 (POU class 6 homeobox 2) | -1.65 | active |
| POU6F2 (POU class 6 homeobox 2) | -0.97 | inactive |
| POU6F2 (POU class 6 homeobox 2) | -0.94 | inactive |
| POU6F2 (POU class 6 homeobox 2) | -0.53 | inactive |
| NUBPL (NUBP iron-sulfur cluster assembly factor, mitochondrial) | 0.76 | inactive |
| NUBPL (NUBP iron-sulfur cluster assembly factor, mitochondrial) | 1.02 | inactive |
| NUBPL (NUBP iron-sulfur cluster assembly factor, mitochondrial) | 0.33 | inactive |
| NUBPL (NUBP iron-sulfur cluster assembly factor, mitochondrial) | 0.06 | inactive |
| ZNG1F (Zn regulated GTPase metalloprotein activator 1F) | 1.47 | inactive |
| ZNG1F (Zn regulated GTPase metalloprotein activator 1F) | 1.05 | inactive |
| ZNG1F (Zn regulated GTPase metalloprotein activator 1F) | 0.74 | inactive |
| ZNG1F (Zn regulated GTPase metalloprotein activator 1F) | 1.58 | inactive |
| TMEM184A (transmembrane protein 184A) | 0.29 | inactive |
| TMEM184A (transmembrane protein 184A) | 1.36 | inactive |
| TMEM184A (transmembrane protein 184A) | 1.2 | inactive |
| TMEM184A (transmembrane protein 184A) | -0.32 | inactive |
| TWIST1 (twist family bHLH transcription factor 1) | 7.74 | active |
| TWIST1 (twist family bHLH transcription factor 1) | 2.63 | inactive |
| TWIST1 (twist family bHLH transcription factor 1) | 1.91 | inactive |
| TWIST1 (twist family bHLH transcription factor 1) | 4.17 | active |
| MSH2 (mutS homolog 2) | -0.58 | inactive |
| MSH2 (mutS homolog 2) | -0.52 | inactive |
| MSH2 (mutS homolog 2) | -1.21 | inactive |
| MSH2 (mutS homolog 2) | -1.06 | inactive |
